Results on 1 substance are retold here after paper PMC7692546.

Results are given in words; binding and its absence hold for the method and conditions named. Binding calls can cover weak binding; strength is not graded here.

The assay addresses T1, Human cathepsin K (human) (UniProt P43235).
T1 sequence: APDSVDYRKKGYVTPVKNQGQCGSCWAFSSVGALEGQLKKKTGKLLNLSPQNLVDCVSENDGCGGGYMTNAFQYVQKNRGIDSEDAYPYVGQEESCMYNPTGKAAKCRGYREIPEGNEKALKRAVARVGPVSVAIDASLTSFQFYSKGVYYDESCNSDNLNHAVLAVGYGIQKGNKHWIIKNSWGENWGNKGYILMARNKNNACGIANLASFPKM
The assay is described as follows: enzyme inhibition (fluorogenic peptide substrate); KT inhibitor (2 μM) incubated with each protease in 100 μl reaction buffer for 15 min at 37 °C, then fluorogenic substrate; inhibition constants by the Morrison equation for tight-binding inhibition; both purified.

On to “Recombinant FhKT1.1 (Fasciola hepatica Kunitz-type inhibitor 1.1)”, for which the binding result is on record as “binds”.
